According to PubChem BioAssay AID624297 (National Center for Advancing Translational Sciences (NCATS), 2012):
Screen size: about 340,000 compounds; about 6,200 (1.8%) were called active. Inconclusive means that the source gave no clear call. Such entries were picked first, then a sample of the others. Calls come from the whole dose curve; as a rule, active = well fitted activation curve with a large enough effect; inconclusive = small, poorly fitted or top-dose-only effect; inactive = no such curve, though single readings can be large or run the other way. Potencies beside an inconclusive call are fits to weak or partial responses and may not hold up.

Assay: A quantitative high throughput screen for small molecules that induce DNA re-replication in SW480 colon adenocarcinoma cells. For re-replication activation: % of control where 0% means no effect. Note: nearly all actives have a fitted effect of over 55% in size.
Conditions: Hoechst DNA content imaging, 48 h; re-replication activation: at 46.1 µM (top of the series) unless noted
Summary of the method: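 Treated cells incubate 48 hr (37 C, 5% CO2), are stained 40 min with Hoechst, and nuclear fluorescence is enumerated; a rise in nuclei with high DNA signal marks re-replication.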
Potency is the fitted concentration of half-maximal effect.

Compound	re-replication activation	Potency
CN(C)C(=O)c1cc(C(=O)c2ccccc2C(F)(F)F)c[nH]1	inactive: -8.3%	
CCN(CC)S(=O)(=O)c1ccc(N/N=C/c2cc(OC)c(OC)cc2OC)nc1		inconclusive: 29.1 µM [activator, single point]
Cc1ccc2c(c1)C(=O)C(=O)N2Cc1ccc(Br)cc1		active: 18.4 µM
Cc1cccc2sc(N(CCN3CCOCC3)C(=O)CCS(=O)(=O)c3ccccc3)nc12		inconclusive: 23.1 µM [activator, single point]
CCCCn1c(N)c(N(CCC(C)C)C(=O)C(C)N2C(=O)c3ccccc3C2=O)c(=O)[nH]c1=O (centres undefined)		inconclusive: 9.2 µM [activator, single point]
CCOC(=O)c1cc2c(=O)n3ccccc3nc2n(Cc2ccco2)c1=NC(=O)c1cccnc1		active: 6.51 µM
Cc1nc(C)c(-c2ccn(S(=O)(=O)c3ccc(Cl)cc3)n2)o1		inconclusive: 1.84 µM [activator, partial curve, poor fit]
CCS(=O)(=O)N1Cc2ccccc2CC1C(=O)Nc1nnc(SCc2ccc(C#N)cc2)s1 (centres undefined)		inconclusive: 20.6 µM [activator, single point]
N#CC1=C(SCC(=O)c2ccc(Cl)cc2)NC2=C(C(=O)CCC2)C1c1ccco1 (centres undefined)		inconclusive: 29.1 µM [activator, single point]
COc1cc(C2C3=C(CCCC3=O)Nc3[nH]n(-c4ccccc4)c(=O)c32)ccc1O (centres undefined)		inconclusive: 29.1 µM [activator, single point]
O=C(c1cc(-c2cccc3ccccc23)nc2ccccc12)N1CCN(CCO)CC1	inactive: -9.87%	
CN(CC(=O)Nc1c(Cl)cccc1Cl)C(=O)C1CCN(C(=O)Nc2ccccc2)CC1	inactive: -2.71%	
CC(C)Sc1nc2ccccc2n1CC(=O)O	inactive: -13.6%	
CCC(=O)c1ccc(OCC(O)CN2CCN(c3ccccn3)CC2)cc1 (centres undefined)	inactive: 0.894%	
O=C(Nc1ccccc1C(F)(F)F)c1ccsc1		inconclusive: 3.66 µM [activator, single point]
Cc1ccc(NC(=O)Cn2cc(C(=O)C3CC3)c3ccccc32)cc1		inconclusive: 18.4 µM [activator, single point]
COc1cc(/C=C/C(=O)c2ccc(NS(=O)(=O)c3ccc(C)cc3)cc2)ccc1OC(F)F		inconclusive: 29.1 µM [activator, single point]
CCOC(=O)c1ccc(N2C(=O)c3n[nH]c(C)c3C2c2ccco2)cc1 (centres undefined)	inactive: -3.26%	
Cc1nnc(-c2ccccc2)c(=O)n1/N=C/c1c(O)ccc2ccccc12		active: 6.51 µM
CC1(C)CC2CN(C(=O)Cc3ccccc3)C(C)(C2)C1 (centres undefined)		inconclusive: 0.366 µM [activator, full curve, poor fit]
O=C(NCc1ccccc1)c1cccc(NC(=O)C2CCC2)c1	inactive: -3.83%	
Cc1cc(C(=O)CN2C(=O)NC3(CCCc4sccc43)C2=O)c(C)n1-c1ccc(Cl)cc1 (centres undefined)	inactive: 11.9%	
CC[C@]12c3[nH]c4ccc(Cl)cc4c3CCN1C(=O)[C@@H](CC(=O)NCC13CC4CC(CC(C4)C1)C3)C[C@@H]2C(=O)N1CCN(C(=O)c2ccco2)CC1		inconclusive: 1.03 µM [activator, full curve, poor fit]

By substructure, the entries above with an aryl methoxy group.
Compound	re-replication activation	Potency
CCN(CC)S(=O)(=O)c1ccc(N/N=C/c2cc(OC)c(OC)cc2OC)nc1		inconclusive: 29.1 µM [activator, single point]
COc1cc(C2C3=C(CCCC3=O)Nc3[nH]n(-c4ccccc4)c(=O)c32)ccc1O (centres undefined)		inconclusive: 29.1 µM [activator, single point]
COc1cc(/C=C/C(=O)c2ccc(NS(=O)(=O)c3ccc(C)cc3)cc2)ccc1OC(F)F		inconclusive: 29.1 µM [activator, single point]

Additional compounds follow.

Compound	re-replication activation	Potency
OC(CNCc1ccco1)Cn1c2ccc(Br)cc2c2cc(Br)ccc21 (centres undefined)		inconclusive: 23.1 µM [activator, single point]
Cc1ccc(C)c(S(=O)(=O)N2CCN(Cc3ccc(O)c4ncccc34)CC2)c1		inconclusive: 2.59 µM [activator, partial curve, poor fit]
COc1ccc(NC(=O)COc2ccccc2)cc1Cl		inconclusive: 0.58 µM [activator, full curve, poor fit]
CC(C)N(Cc1ccccc1)C(=O)COC(=O)c1cc(S(=O)(=O)N(C)C)ccc1N1CCCC1	inactive: 8.12%	
CCC(=O)Oc1oc(-c2ccccc2)nc1C=Nc1ccccc1OC		inconclusive: 29.1 µM [activator, single point]
C/C(=N\Nc1nnc2c3ccccc3n(C)c2n1)c1ccc(C)o1		inconclusive: 20.6 µM [activator, single point]
CCCCN(CCCC)S(=O)(=O)c1ccc(NC(=O)c2cccs2)cc1		inconclusive: 25.9 µM [activator, single point]
Cc1ccc(C2NC(c3ccc(C)cc3)C(C)C(=NO)C2C)cc1 (centres undefined)		inconclusive: 2.91 µM [activator, single point]
COc1ccc(N2CC(C)Cn3c2nc2c3c(=O)n(Cc3ccccc3)c(=O)n2C)c(OC)c1 (centres undefined)	inactive: 13.9%	
COC(=O)c1sccc1NC(=O)c1cc(OC)c(OC)c(OC)c1		inconclusive: 32.6 µM [activator, partial curve, poor fit]
C=CCc1cccc(/C=N/NC(=O)CCC(=O)Nc2ccc(C)cc2)c1O		inconclusive: 18.4 µM [activator, single point]
CCOC(=O)C1CCN(Cc2cc(Cl)c3ccccc3c2O)CC1		inconclusive: 18.4 µM [activator, single point]
Cc1[nH]n(-c2ccccc2)c(=O)c1C(C[N+](=O)[O-])c1ccc(F)cc1 (centres undefined)	inactive: -136%	
CCN(CC(=O)Nc1ccccc1OC)CC(=O)Nc1ccccc1-c1ccccc1		inconclusive: 18.4 µM [activator, single point]
O=C(Nc1cccc(-c2cnc3ccccc3n2)c1)c1cccc(NC(=O)c2ccco2)c1	inactive: 3.42%	
Cn1c(=O)c2c(ncn2CC(=O)OCC(=O)Nc2ccc(F)cc2F)n(C)c1=O	inactive: -8.47%	
CC1(C)CCC(=O)N2CC[C@H]3C[C@H](OC(=O)Nc4ccccc4)C[C@@H]1[C@H]32	inactive: -11.8%	
CCN(C(=O)COC(=O)CCC(=O)c1ccccc1)c1c(N)n(Cc2ccccc2)c(=O)[nH]c1=O		inconclusive: 29.1 µM [activator, single point]
COc1cccc(/C=C2\SC(=S)N(CC(=O)N(C)C3CCS(=O)(=O)C3)C2=O)c1 (centres undefined)		inconclusive: 29.1 µM [activator, single point]
NC(=O)COC(=O)c1cccnc1Nc1ccccc1F	inactive: -7.22%	
CCOc1ccc(C(=O)COC(=O)Cc2n[nH]c(=O)c3ccccc23)cc1		active: 2.59 µM
O=C(Nc1ccncc1)c1ccc(Cl)c(S(=O)(=O)N2CCCC2)c1	inactive: -18.1%	
CC(=O)Nc1ccc(N)cc1	inactive: -8.83%	

Compound	re-replication activation	Potency
CCN(CC)c1ccc2oc(=O)c(C)nc2c1		inconclusive: 3.66 µM [activator, single point]
Cc1nc2ccccc2c2oc(C(=O)NCc3ccccn3)cc12	inactive: -4.24%	
Cc1ccc(NC(=O)CSc2nnc(CN3CCOCC3)n2-c2ccccc2)cc1		inconclusive: 0.0065 µM [activator, full curve, poor fit]
O=C(COc1ccccc1CNCc1ccccc1)Nc1ccccc1	inactive: 2.04%	
Cc1ccc(S(=O)(=O)N(Cc2cc3cccc(C)c3[nH]c2=O)c2ccccc2)cc1		inconclusive: 29.1 µM [activator, single point]
CCOC(=O)c1oc2cccc(OCC(O)CNC(C)C)c2c1C (centres undefined)		inconclusive: 18.4 µM [activator, single point]
COc1ccc(/C=C2\SC(=S)N(CC(=O)N(C)C3CCS(=O)(=O)C3)C2=O)cc1 (centres undefined)		inconclusive: 7.31 µM [activator, partial curve, poor fit]
CCN1C(N(C)CCc2c[nH]c3ccccc23)=N[C@@H](c2cccc(C(F)(F)F)c2)C(C(=O)OC)=C1C		inconclusive: 16.4 µM [activator, partial curve, poor fit]
CC(=O)C1=C(c2ccccc2)NC(=O)NC1c1ccccc1OCC(=O)Nc1ccccc1 (centres undefined)		inconclusive: 6.51 µM [activator, single point]
O=C(NCNC(=O)c1ccccc1)c1ccccc1		inconclusive: 23.1 µM [activator, single point]
Cc1nn2c(N3CCOCC3)cc(C(C)(C)C)nc2c1-c1ccccc1		inconclusive: 3.26 µM [activator, single point]
Clc1ccccc1CONc1ncnc2nonc12		inconclusive: 29.1 µM [activator, single point]
COCCN(C(=O)COC(=O)c1ccccc1Oc1ccccc1)c1c(N)n(Cc2ccccc2)c(=O)[nH]c1=O		active: 20.6 µM
COc1cc(Br)c(CC(=O)O)cc1OC		inconclusive: 6.51 µM [activator, single point]
CCC(CC)N1CCN(C(=O)c2cc(OC)c(OC)c(OC)c2)CC1		inconclusive: 20.6 µM [activator, single point]
Cc1[nH]n(-c2ccccc2)c(=O)c1C=Nc1cccc2cccnc12		inconclusive: 5.8 µM [activator, partial curve, poor fit]
Cc1ccc(CNS(=O)(=O)/C=C/c2ccc3c(c2)OCO3)cc1	inactive: -4.97%	
O=C(NCCN1C(=O)S/C(=C\c2ccc(Cl)cc2)C1=O)c1ccc(F)c(S(=O)(=O)N2CCOCC2)c1	inactive: -1.19%	
CC(=O)N1c2ccc(S(=O)(=O)NCC3CCC(C(=O)Nc4ncccc4C)CC3)cc2CC1C (centres undefined)	inactive: -4.82%	
C=CCSc1nnc(NC(=O)CN2C(=O)NC3(CCCC3)C2=O)s1	inactive: -7.98%	
COc1cccc(C2CC(c3cccc(NS(C)(=O)=O)c3)=NN2C(=O)c2ccccc2)c1OC (centres undefined)		inconclusive: 29.1 µM [activator, single point]
CCCc1cc(=O)oc2cc(C)cc(OCC(=O)N3CCC(C(=O)O)CC3)c12		inconclusive: 2.91 µM [activator, partial curve, poor fit]
Cc1ccc(NC(=O)C2Cc3ccccc3CN2C(=O)c2ccco2)cc1S(=O)(=O)N(C)C (centres undefined)		inconclusive: 32.6 µM [activator, partial curve, poor fit]
